{"source": "patent US9833433B1", "about": "“Compositions, methods of use, and methods of treatment” (priority 2013, dated 2017)", "key": {"[1]": {"system": "EAAT1, EAAT2, and EAAT3", "test": "Hippocampal expression of glutamate transporters (immunoblot)", "details": "Δ^9-THC 10 mg/kg + Celebrex 10 mg/kg once a day for 7 days"}, "[2]": {"system": "PGE2", "test": "PGE2 assay in hippocampal tissue (enzyme immunoassay)", "format": "in vivo, mice", "details": "Celebrex 10 mg/kg 30 min prior to Δ^9-THC 10 mg/kg", "excerpt": "PGE2 in hippocampal tissue was detected using PGE2 enzyme immunoassay kit (Cayman Chemical, Ann Arbor, Mich.) according to the procedure described by the manufacturer (Zhang and Chen, 2008)."}, "[3]": {"system": "catalepsy", "test": "Bar test (catalepsy)", "format": "in vivo, mice", "details": "Celebrex 10 mg/kg 30 min prior to Δ^9-THC 10 mg/kg", "procedure": "(§1) The classic Morris water maze and fear conditioning tests were performed to determine spatial and fear memory as described previously (Chen et al., 2012). The ‘open field’ test was conducted to detect the locomotor activity and the bar test was used to detect catalepsy (Egashira et al., 2007).\nThe cataleptic effect of Δ^9-THC was detected using the bar test as described previously with modification (Egashira et al., 2007; Pertwee and Wickens, 1991). Briefly, the front paws of each mouse were placed on an elevated rod (0.5 cm in diameter and 3.5 cm from the bottom of the test box) and the duration of time that the mouse kept motionless was determined. The test was conducted 30, 60, and 90 min after Δ^9-THC injection. Celebrex was injected 30 min prior to Δ^9-THC injection."}, "[4]": {"system": "locomotor activity", "test": "Open field test (locomotor activity)", "format": "in vivo, mice", "details": "Celebrex 10 mg/kg 30 min prior to Δ^9-THC 10 mg/kg", "procedure": "as §1\nThe ‘open field’ test was conducted using an automatic-recording open-field working station (MED Associates, Georgia, Vt.). During the test, mice were individually released into the center of the box immediately after injections of Δ^9-THC, NS398, Δ^9-THC+NS398, Celebrex or Celebrex+Δ^9-THC. Celebrex and NS398 were injected 30 min prior to Δ^9-THC injection and allowed to explore the field for 30 min and their behaviors were recorded by a photobeam-scanning system and a video camera simultaneously. Data were analyzed automatically by the computer-sampling system."}}, "note": "For at least one compound, name, drawing or mass did not settle the structure."}
{"smiles": "Cc1ccc(-c2cc(C(F)(F)F)nn2-c2ccc(S(N)(=O)=O)cc2)cc1", "note": "[Celebrex, celecoxib]", "values": [{"measurement": "effect on Δ^9-THC-reduced expression of glutamate transporters", "setting": "[1]", "value": "blocked by COX-2 inhibition"}, {"measurement": "effect on Δ^9-THC-induced elevation of PGE2", "setting": "[2]", "value": "could be inhibited"}, {"measurement": "effect on Δ^9-THC-induced cataleptic effect", "setting": "[3]", "value": "diminished by inhibition of COX-2"}, {"measurement": "effect on Δ^9-THC-induced locomotor depression", "setting": "[4]", "value": "diminished by inhibition of COX-2"}]}
